Data taken from patent US20160138012.

The chains behind the UniProt entries cited, without tags or fusion partners. Where a name states a change or a piece, a line headed by the entry shows the natural chain unless it says otherwise.
UniProt P39016: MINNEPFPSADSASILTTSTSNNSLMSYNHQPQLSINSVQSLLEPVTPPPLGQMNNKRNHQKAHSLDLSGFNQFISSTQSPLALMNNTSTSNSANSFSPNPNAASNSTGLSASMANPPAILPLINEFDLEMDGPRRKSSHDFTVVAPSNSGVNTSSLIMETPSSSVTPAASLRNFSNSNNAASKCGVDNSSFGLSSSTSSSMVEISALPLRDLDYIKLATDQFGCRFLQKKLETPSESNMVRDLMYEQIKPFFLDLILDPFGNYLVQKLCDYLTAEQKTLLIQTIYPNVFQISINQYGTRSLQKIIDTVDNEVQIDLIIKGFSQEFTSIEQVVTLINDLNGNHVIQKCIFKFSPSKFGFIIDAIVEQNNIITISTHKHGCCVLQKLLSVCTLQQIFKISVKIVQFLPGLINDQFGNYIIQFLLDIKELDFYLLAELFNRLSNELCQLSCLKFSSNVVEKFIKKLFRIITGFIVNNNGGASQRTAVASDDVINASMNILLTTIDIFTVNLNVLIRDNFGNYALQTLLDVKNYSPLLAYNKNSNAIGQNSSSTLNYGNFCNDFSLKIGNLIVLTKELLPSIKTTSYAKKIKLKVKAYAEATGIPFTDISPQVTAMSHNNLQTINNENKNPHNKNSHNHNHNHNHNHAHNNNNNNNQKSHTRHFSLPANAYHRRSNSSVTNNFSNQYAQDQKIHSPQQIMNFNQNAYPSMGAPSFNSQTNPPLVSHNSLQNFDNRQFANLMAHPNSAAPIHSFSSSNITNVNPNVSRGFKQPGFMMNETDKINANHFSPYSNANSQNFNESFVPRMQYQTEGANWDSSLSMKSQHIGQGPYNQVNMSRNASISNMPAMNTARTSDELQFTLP

Molecular target: Puf5p (PUF5-PUP chimera) (Saccharomyces cerevisiae) (UniProt P39016)
Test: binding assay
Details: protein in cells
[1] = in vivo RNA Tagging of endogenous PHD1 mRNA carrying both intact elements

| Sequence | binding result [1] | also measured |
| --- | --- | --- |
| UGUAGUUA [PHD1 3' UTR PUF-binding element UGUAGUUA] | binds |  |
| ACAAACAUUA [PHD1 mutant element ACAAACAUUA] |  | binding result (in vivo RNA Tagging, both elements mutated together in PHD1 mRNA, no U-tag): no binding |
| ACAAGUUA [PHD1 mutant element ACAAGUUA] |  | binding result (in vivo RNA Tagging, both elements mutated together in PHD1 mRNA, no U-tag, variant of PHD1 3' UTR PUF-binding element UGUAGUUA): no binding |
| UGUAACAUUA [PHD1 3' UTR PUF-binding element UGUAACAUUA] | binds |  |

Construct, isoform or probe ends are uncertain for at least one entry. At least one result comes from cells or an extract, where the contact may be indirect. Negatives hold for the conditions tested.
